Laboratory results: patent US20170037117A1, “COMPOSITIONS AND METHODS FOR TREATING METABOLIC DISORDERS” (Salk Institute for Biological Studies, priority 2014, published 2017)
At least one compound was matched to its structure with a doubt left.

System: CRTC1 shuttling in DRG neurons
Test: CRTC1 nuclear shuttling in dissociated DRG neuronal cultures (immunostaining)
Format: cell-based, mouse
Conditions: combination of FSK (25 μM) and KCl (30 mM); WT and TRPV1 mutant DRG cells; positive control; FIG. 14C

SMILES: C=C[C@@]1(C)CC(=O)[C@]2(O)[C@@]3(C)[C@@H](O)CCC(C)(C)[C@@H]3[C@H](O)[C@H](OC(C)=O)[C@@]2(C)O1 [FSK, Forskolin]
- CRTC1 nuclear localization: induced CRTC1 nuclear entry
